Laboratory results published in PubChem BioAssay AID2685 (National Center for Advancing Translational Sciences (NCATS), 2010).
The other results are listed elsewhere or left out. These are further read-outs of the screen, such as a control signal, another cell line or another target. No call is given for them. Compounds called inactive in the main read-out are mostly missing here. Words in brackets tell the shape of the fitted curve; partial curves, single points and poor fits give uncertain potencies.

Assay: qHTS Assay for Lipid Storage Modulators in Drosophila S3 Cells;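 as to cell number change: cells counted by Cell Tracker Red CMTPX staining in the red channel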
Details: BODIPY lipid droplet fluorescence, 18-24 h; for cell number change: measured here: cell count max response, cells fed with added oleic acid
In short: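 Laser-scanning cytometry quantifies lipid droplet accumulation (500–530 nm total intensity; droplet/cell object ratio) in oleic acid-fed (400 uM added) Drosophila S3 cells treated with a concentration series. 20 uM Triacsin C defined 100% inhibition.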

[1] = measured here: lipid fluorescence (Fed channel) AC50, cells fed with added oleic acid
[2] = measured here: cell number channel AC50, cells fed with added oleic acid

| Structure (SMILES) | cell number change | AC50 [1] | AC50 [2] |
| --- | --- | --- | --- |
| COc1cc(C(=O)OCC(=O)NC23CC4CC(CC(C4)C2)C3)cc(OC)c1OC | 14.5% |  |  |
| COc1ccc(NC(=O)c2cc3ccccc3oc2=O)c(OC)c1 | 22.6% | 0.651 µM [falling, full curve] |  |
| CCN(CC)S(=O)(=O)c1ccc(O)c(NC(=O)c2cc(-c3cc(OC)c(OC)c(OC)c3)nc3ccccc23)c1 | 7.21% | 6.51 µM [rising, partial curve] |  |
| Cc1cc(NC(=O)c2cc3nc(C4CC4)cc(C(F)(F)F)n3n2)no1 | 25.7% | 29.1 µM [rising, single point] | 4.11 µM [rising, full curve, poor fit] |
| CC(C)(C)OC(=O)N[C@@H](Cc1ccccc1)C(=O)N[C@@H](CO)[C@H](O)[C@@H]1C[C@@H]1C(=O)N1CCCC1 | 46.6% |  | 14.6 µM [rising, partial curve] |
| Cc1ccc(OCCCCN2CCc3ccccc3C2)c(C)c1 | -13.1% | 0.58 µM [falling, single point] |  |
| N#C/C(=C\c1ccccc1[N+](=O)[O-])c1nc(C2CC2)cs1 | 10.2% | 29.1 µM [rising, single point] | 3.66 µM [falling, partial curve] |
| CC(C)[C@H](NC(=O)c1ccccc1F)C(=O)Nc1ccc2c(c1)OCO2 | 2.27% |  |  |
| COC(=O)c1sc(S(=O)(=O)N2CCN(c3ccc(OC)cc3)CC2)c(C(=O)OC)c1C | -19.6% |  |  |
| Cc1[nH]n(-c2ccccc2)c(=O)c1-c1cccc(Cl)c1 | -17.3% | 0.206 µM [falling, full curve] |  |
| CN(C)c1ccc(NC(=O)CCn2c(=S)oc3ccccc32)cc1 |  | 2.06 µM [rising, partial curve] | 1.3 µM [rising, full curve, poor fit] |
| O=C(CSCc1ccccc1)N1CCN(S(=O)(=O)c2ccc(F)cc2)CC1 | -3.76% |  |  |
| Cc1ccccc1-n1ncc2c1CC(C)(C)CC2NC(=O)CCN1Cc2ccccc2C1=O (stereo not given) | 24.4% | 29.1 µM [rising, single point] |  |
| O=C(NCc1ccccn1)c1ccc(CS(=O)(=O)Cc2ccc(Cl)cc2)o1 |  | 0.259 µM [rising, partial curve, poor fit] |  |
| Cc1nc(Oc2ccccc2)c2ccsc2n1 | -8.95% | 0.146 µM [falling, full curve, poor fit] |  |
| CCOC(=O)c1c(C)oc2ccc(OC(=O)N3CCOCC3)cc12 | 9.17% |  |  |
| C=CCNC(=O)c1snnc1-c1ccccc1 | 4.45% |  | 0.517 µM [rising, partial curve] |

Some of these compounds in order of heavy-atom count, rising:

| Structure (SMILES) | cell number change | AC50 [1] | AC50 [2] |
| --- | --- | --- | --- |
| Cc1nc(Oc2ccccc2)c2ccsc2n1 | -8.95% | 0.146 µM [falling, full curve, poor fit] |  |
| O=C(NCc1ccccn1)c1ccc(CS(=O)(=O)Cc2ccc(Cl)cc2)o1 |  | 0.259 µM [rising, partial curve, poor fit] |  |
| CC(C)(C)OC(=O)N[C@@H](Cc1ccccc1)C(=O)N[C@@H](CO)[C@H](O)[C@@H]1C[C@@H]1C(=O)N1CCCC1 | 46.6% |  | 14.6 µM [rising, partial curve] |
